# Results as given in PMC5413979 (Nature Communications, 2017).
# Biological target: T1, VcINDY (Vibrio cholerae, UniProt Q9KNE0)
# T1 construct: gene VC_A0025
# Assay: biochemical
structure (smiles),measurement,value
O=C(O)CC(O)(CC(=O)O)C(=O)O [citrate],inhibition at 95000 µM,< 20%
